# Data as given in PubChem BioAssay AID1671195 (Yale University, 2021).
# Assay: 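Knockdowns that increase or decrease uptake of fluorescent LDL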 (primary screen)
# Cell system: human Huh7 hepatoma cells
# Knock-down reagent: siRNA pool against human genes, 18 nM
# Duration: about 2 to 2.5 days of knockdown, then 8 h LDL uptake
# Conditions: DiI-labelled LDL at 30 µg/ml for 8 h, in lipoprotein-deficient serum medium
# Measured: 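Fluorescent LDL signal imaged in cells, scaled to the plate median, robust z-score for each replicate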
# Scale: robust z-score: higher = more LDL uptake after knockdown
# Hit rule: 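a gene counts as active if at least two replicate z-scores exceed ±2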
# The whole screen tested about 22,000 reagents; this is an unselected part. About 1,510 of all reagents (6.9%) count as active. 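Active includes knockdowns raising or lowering LDL uptake; positive z-scores mean more uptake, negative mean less.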 Reagents against one gene are numbered here.
gene,reagent no.,"robust z-score, replicate 1","robust z-score, replicate 2","robust z-score, replicate 3",activity call
CISH (GeneID 1154),1,4.68,3.38,2.32,active
PKN3 (GeneID 29941),1,-0.223,-0.106,-0.591,inactive
PAGE3 (GeneID 139793),1,0.124,-0.212,-0.204,inactive
CLCNKA (GeneID 1187),1,-0.511,-0.876,0.322,inactive
GABRA5 (GeneID 2558),1,-0.81,-0.442,-0.544,inactive
KIF4B (GeneID 285643),1,0.822,0.27,0.327,inactive
BTBD7 (GeneID 55727),1,1.8,-0.194,-0.503,inactive
NAA60 (GeneID 79903),1,-0.773,-0.817,-0.546,inactive
ANKH (GeneID 56172),1,-1.13,-1.78,2.22,inactive
OSBPL3 (GeneID 26031),1,0.694,1.28,0.383,inactive
DAZAP2 (GeneID 9802),1,0.283,-0.24,-0.478,inactive
JADE3 (GeneID 9767),1,-0.405,-0.973,-0.0695,inactive
LOC441566 (retired record) (GeneID 441566),1,1.71,1.17,1.37,inactive
NCOA1 (GeneID 8648),1,-1.09,-1.11,0.221,inactive
LOC441044 (retired record) (GeneID 441044),1,0.164,-0.148,0.00661,inactive
NEUROD2 (GeneID 4761),1,-0.54,-0.157,-0.171,inactive
SP2 (GeneID 6668),1,0.938,1.42,0.9,inactive
HSPA4 (GeneID 3308),1,0.837,1.09,0.74,inactive
KLK13 (GeneID 26085),1,0.473,0.87,0.748,inactive
VIT (GeneID 5212),1,-0.0219,0.569,-0.0154,inactive
ENO4 (GeneID 387712),1,-0.966,-0.925,-0.704,inactive
SRP9 (GeneID 6726),1,-0.352,-1.11,0.511,inactive
LOC142937 (retired record) (GeneID 142937),1,-0.0172,-0.944,-0.116,inactive
IGSF8 (GeneID 93185),1,0.921,0.276,0.278,inactive
TMEM179B (GeneID 374395),1,-1.45,-1.12,-1.59,inactive
PLCD1 (GeneID 5333),1,0.345,0.376,0.704,inactive
SLC9A6 (GeneID 10479),1,-0.917,-1.29,-0.671,inactive
SH3PXD2A (GeneID 9644),1,-0.325,-0.499,1.27,inactive
LGI1 (GeneID 9211),1,-0.0837,1.61,0.156,inactive
LRFN3 (GeneID 79414),1,-0.95,-0.9,-0.94,inactive
PDGFB (GeneID 5155),1,-0.613,-1.54,-0.157,inactive
LOC441894 (retired record) (GeneID 441894),1,-2.04,-2.65,-2.28,active
PPIAP19 (GeneID 390006),1,-0.78,-0.88,-0.907,inactive
DOP1B (GeneID 9980),1,0.106,-0.552,0.445,inactive
IRF2 (GeneID 3660),1,0.336,-0.0552,0.299,inactive
NPVF (GeneID 64111),1,-0.706,0.204,0.154,inactive
SLC8B1 (GeneID 80024),1,-0.416,-1.03,-0.401,inactive

A few values from the entries so far:
LOC441894 (retired record) (GeneID 441894), activity call → active
For “robust z-score, replicate 3”, DOP1B (GeneID 9980) reads 0.445
Under “robust z-score, replicate 2”, NAA60 (GeneID 79903) reads -0.817
Under “robust z-score, replicate 2”, NPVF (GeneID 64111) is entered as 0.204
HSPA4 (GeneID 3308), robust z-score, replicate 1: 0.837
Under “activity call”, ENO4 (GeneID 387712) has inactive

More results:
gene,reagent no.,"robust z-score, replicate 1","robust z-score, replicate 2","robust z-score, replicate 3",activity call
ULBP2 (GeneID 80328),1,-0.757,-0.495,-0.966,inactive
OR6K2 (GeneID 81448),1,-0.919,-0.67,-0.73,inactive
LINC00887 (GeneID 100131551),1,-0.539,-0.725,-0.923,inactive
NCKAP5L (GeneID 57701),1,1.4,1.86,2.79,inactive
NCKAP5L (GeneID 57701),2,-1.28,-1.09,-1.2,inactive
ZNF214 (GeneID 7761),1,0.283,1,0.639,inactive
LOC389039 (retired record) (GeneID 389039),1,0.352,0.943,0.291,inactive
LINC01342 (GeneID 254099),1,0.0823,0.0608,-0.152,inactive
MRPL2 (GeneID 51069),1,2.79,1.19,-1.28,inactive
RDH14 (GeneID 57665),1,-1.01,0.174,-0.979,inactive
NMNAT3 (GeneID 349565),1,1.13,1.16,0.327,inactive
SGIP1 (GeneID 84251),1,0.555,-0.11,-0.572,inactive
WDR64 (GeneID 128025),1,1.34,0.0713,1.19,inactive
PXDNL (GeneID 137902),1,-0.307,0.0612,0.423,inactive
TRADD (GeneID 8717),1,0.0059,0.232,1.32,inactive
FAAP24 (GeneID 91442),1,2.04,2.17,2.18,active
LHFPL6 (GeneID 10186),1,0.16,-0.474,-0.514,inactive
ARMH3 (GeneID 79591),1,-0.00512,0.48,0.445,inactive
NLRP9 (GeneID 338321),1,2.53,2.07,3.02,active
TEAD4 (GeneID 7004),1,0.724,1.3,0.984,inactive
WFIKKN2 (GeneID 124857),1,1.24,1.33,1.34,inactive
FAM180A (GeneID 389558),1,-1.56,-1.3,-1.23,inactive
LOC200731 (retired record) (GeneID 200731),1,0.0248,0.0541,-0.392,inactive
ZNF702P (GeneID 79986),1,-1.28,-1.32,-0.482,inactive
LOC388635 (retired record) (GeneID 388635),1,0.171,0.0955,0.718,inactive
SLC35B1 (GeneID 10237),1,-1.26,-0.76,1.03,inactive
PARP4 (GeneID 143),1,-0.981,-0.958,-0.334,inactive
ZDHHC5 (GeneID 25921),1,1.47,2.17,1.98,active
LRRC4B (GeneID 94030),1,-1.22,-1,-0.492,inactive
PCDHGA7 (GeneID 56108),1,1.06,0.832,1,inactive
COL6A5 (GeneID 256076),1,-0.905,-0.455,-0.894,inactive
